Laboratory results reported in publication PMC5717197, “Mechanistic insight into TRIP13-catalyzed Mad2 structural transition and spindle checkpoint silencing” (Nature Communications, 2017).
These are yes or no findings as the source states them, for the method shown. Some results given as binding are weak or reduced against the parent protein; the word gives no strength. Tags and fused reporters may be left off the sequences shown.

Chains of the proteins cited; added tags and fusions are not shown. Lines headed by an entry give the natural chain unless they say otherwise; changes in a name come on top.
UniProt Q13257, whole entry, looked up, stated change not applied: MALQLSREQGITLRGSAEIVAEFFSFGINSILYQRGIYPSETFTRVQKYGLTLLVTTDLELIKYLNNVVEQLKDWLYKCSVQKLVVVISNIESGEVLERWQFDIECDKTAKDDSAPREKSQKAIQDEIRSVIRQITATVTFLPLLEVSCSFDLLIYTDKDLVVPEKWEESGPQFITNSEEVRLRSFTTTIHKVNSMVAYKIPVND

Biological target: T1, His6-ΔN35-p31^comet (co-expressed with Mad2^L13A) (human) (UniProt Q15013)
T1 sequence: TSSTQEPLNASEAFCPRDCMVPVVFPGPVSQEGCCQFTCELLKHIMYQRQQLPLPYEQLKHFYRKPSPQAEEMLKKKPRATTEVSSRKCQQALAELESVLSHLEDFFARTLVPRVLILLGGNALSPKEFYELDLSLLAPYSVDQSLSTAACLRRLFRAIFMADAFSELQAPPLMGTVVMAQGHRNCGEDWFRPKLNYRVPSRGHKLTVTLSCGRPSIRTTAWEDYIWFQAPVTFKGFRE
Experiment: co-purification of co-expressed proteins; His6-ΔN35-p31comet and Mad2 L13A co-expressed in E. coli BL21 (DE3); Ni-NTA, TEV cleavage, Resource Q, Superdex 200 Increase

Substance: Mad2^L13A (from UniProt Q13257 1-205)
- binding: binds
